The target in the assay is T1, GlyR-α3L-eGFP (glycine receptor α3, long splice variant L, N-terminally tagged with eGFP) (mouse) (UniProt Q91XP5).
T1 sequence: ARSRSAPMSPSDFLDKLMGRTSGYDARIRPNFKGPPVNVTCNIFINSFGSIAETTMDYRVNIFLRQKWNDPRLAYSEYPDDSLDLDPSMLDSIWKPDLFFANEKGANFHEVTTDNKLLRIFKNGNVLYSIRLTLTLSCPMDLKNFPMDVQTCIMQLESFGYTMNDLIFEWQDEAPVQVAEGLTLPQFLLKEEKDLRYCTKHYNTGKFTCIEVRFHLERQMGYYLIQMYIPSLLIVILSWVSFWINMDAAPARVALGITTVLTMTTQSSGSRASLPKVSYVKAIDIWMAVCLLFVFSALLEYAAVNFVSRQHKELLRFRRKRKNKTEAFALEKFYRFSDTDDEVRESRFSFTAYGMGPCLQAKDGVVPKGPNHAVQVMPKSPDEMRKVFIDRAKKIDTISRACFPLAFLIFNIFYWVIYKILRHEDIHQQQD
In words: dual-colour temporal image cross-correlation spectroscopy.

Results are given in words; binding and its absence hold for the method and conditions named. Some results given as binding are weak or reduced against the parent protein; the word gives no strength. Sequences can lack the tags named with a protein.

B1: GlyR-α3L-eGFP (glycine receptor α3, long splice variant L, N-terminally tagged with eGFP) (receptor, mouse, UniProt Q91XP5 34-464, looked up)
chain: T1 sequence
With B1, the binding entry is on record as “binds”.

The values are drawn from paper doi:10.1101/2021.02.18.431627 (bioRxiv, 2021).
